Results deposited as PubChem BioAssay AID1259405 (NCATS, 2018)

Purpose: 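Knock-downs that lift recombinant protein yield in hamster ovary cells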 (primary screen)
System: Chinese hamster CHO-K1 ovary cells with stable secreted eGFP expression
Reagent: single siRNA against mouse genes, 0.8 pmol siRNA per well (2 µl of 400 nM stock)
Time to read-out: 3 days
Measurement: 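Per-well intracellular GFP measured by laser scanning cytometry, plus viability from ATP luminescence, each relative to plate median of non-targeting control wells, in %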
Reading the numbers: GFP, % of control: higher = more GFP per well, higher productivity; viability (ATP), % of control: higher = more viable cells (more ATP)
Rule for the call: 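a knock-down is called active if GFP reaches 120% or more of non-targeting control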
Shown is one part, drawn at random, of about 50,000 deposited reagents. In the full data, about 4,000 (8%) got an active call. 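Mouse siRNA library applied to hamster cells; one well for each siRNA.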 Reagents against one gene are numbered here.

For Rspo4 (R-spondin 4) #1, what does the deposit list?
GFP, % of control: 131; viability (ATP), % of control: 69.4; outcome: active

What is on record for Rspo4 (R-spondin 4) #2?
GFP, % of control: 38.7; viability (ATP), % of control: 51.8; outcome: inactive

With Rspo4 (R-spondin 4) #3, how do the results read?
GFP, % of control: 85.1; viability (ATP), % of control: 70; outcome: inactive

With Ifngr2 (interferon gamma receptor 2) #1, what was measured?
GFP, % of control: 98; viability (ATP), % of control: 119; outcome: inactive

With Ifngr2 (interferon gamma receptor 2) #2, how do the results read?
GFP, % of control: 73; viability (ATP), % of control: 62.5; outcome: inactive

Which result is listed for Ifngr2 (interferon gamma receptor 2) #3?
GFP, % of control: 63.2; viability (ATP), % of control: 81.7; outcome: inactive

What did the screen give for Slc48a1 #1?
GFP, % of control: 101; viability (ATP), % of control: 87.8; outcome: inactive

For Slc48a1 #2, how do the results read?
GFP, % of control: 52.1; viability (ATP), % of control: 48.6; outcome: inactive

For Slc48a1 #3, what does the deposit list?
GFP, % of control: 77.1; viability (ATP), % of control: 72.8; outcome: inactive

With Man2a2 (mannosidase 2, alpha 2) #1, how do the results read?
GFP, % of control: 94.1; viability (ATP), % of control: 84.4; outcome: inactive

How did the screen score Man2a2 (mannosidase 2, alpha 2) #2?
GFP, % of control: 96.4; viability (ATP), % of control: 111; outcome: inactive

What did the screen give for Man2a2 (mannosidase 2, alpha 2) #3?
GFP, % of control: 117; viability (ATP), % of control: 118; outcome: inactive

With Sprr2d (small proline-rich protein 2D) #1, what does the deposit list?
GFP, % of control: 114; viability (ATP), % of control: 41.7; outcome: inactive

What did the screen give for Sprr2d (small proline-rich protein 2D) #2?
GFP, % of control: 190; viability (ATP), % of control: 132; outcome: active

For Sprr2d (small proline-rich protein 2D) #3, how do the results read?
GFP, % of control: 137; viability (ATP), % of control: 112; outcome: active

With Atxn10 (ataxin 10) #1, what was measured?
GFP, % of control: 93.2; viability (ATP), % of control: 104; outcome: inactive

What is on record for Atxn10 (ataxin 10) #2?
GFP, % of control: 50.9; viability (ATP), % of control: 81.9; outcome: inactive

For Atxn10 (ataxin 10) #3, what does the deposit list?
GFP, % of control: 51.4; viability (ATP), % of control: 85.2; outcome: inactive
